Data as given in PubChem BioAssay AID602196 (INSERM, 2012).
Test: 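Knock-downs that protect lung cancer cells from cisplatin or sensitise them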. Cell system: human A549 lung cancer cells. Knock-down reagent: siRNA pair against human genes. Timing: 48 h transfection before cisplatin; time from cisplatin to read-out not stated. Conditions: cisplatin at a dose killing half of control-siRNA cells; exact dose and duration not given. Read-out: 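Cisplatin cell death as a shift from the 50% death seen with control siRNA; siRNAs toxic or growth-blocking alone scored 0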. Direction: two-siRNA summed score (-2 to +2): higher = both siRNAs protect from cisplatin killing; -2 means both sensitise; mean protection from cisplatin (shift in death) and protection from cisplatin (shift in death), siRNA C: higher = protection from cisplatin killing. Hit rule: 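siRNAs harmful alone (LDH or WST-1) get 0; others get +1 for less and -1 for more cisplatin killing; genes are active when the two siRNAs give the same sign, summing to ±2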. Meaning of the calls: active = both siRNAs shift cisplatin killing the same way; inactive = no consistent shift, or siRNA harmful alone.
In all, the deposit lists about 23,000 reagents; this is an unselected part. 455 of them (2%) count as active. 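Active includes both protection and sensitisation; some change values fall well beyond the stated -50 to +50 range.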 The numbers tell different reagents against one gene apart. Further read-outs or replicates are left out here. The record does not give: the amount of reagent.

target | reagent no. | two-siRNA summed score (-2 to +2) | mean protection from cisplatin (shift in death) (%) | protection from cisplatin (shift in death), siRNA C (%) | Outcome
LOC392443 | 1 | 2 | 26.9 | 36.8 | active
CRCT1 (cysteine rich C-terminal 1) | 1 | 0 | 6.7 | 5.6 | inactive
NBPF14 (NBPF member 14) | 1 | 1 | 39.7 | 42.5 | inactive
MAP2K2 (mitogen-activated protein kinase kinase 2) | 1 | 0 | -0.3 | 6.9 | inactive
LOC441956 (retired record) | 1 | 0 | 5.6 | 8.4 | inactive
PRKCZ (protein kinase C zeta) | 1 | 0 | 5.4 | 3.2 | inactive
PTPRF (protein tyrosine phosphatase receptor type F) | 1 | 0 | -1 | 2.8 | inactive
TMEFF1 | 1 | 0 | -8.1 | -5.2 | inactive
LOC116064 | 1 | 1 | 13 | 25.4 | inactive
BAHD1 (bromo adjacent homology domain containing 1) | 1 | 0 | 5 | 7 | inactive
OR4F6 (olfactory receptor family 4 subfamily F member 6) | 1 | 0 | 16.5 | 23.9 | inactive
DNALI1 (dynein axonemal light intermediate chain 1) | 1 | 1 | 14.1 | 10.3 | inactive
KLC2 (kinesin light chain 2) | 1 | 0 | -5.2 | 13.8 | inactive
SMG1P2 (SMG1 pseudogene 2) | 1 | 0 | 13.5 | 15.6 | inactive
LSR (lipolysis stimulated lipoprotein receptor) | 1 | -1 | -28.3 | -8.4 | inactive
TRRAP (transformation/transcription domain associated protein) | 1 | -1 | -8.8 | -19.8 | inactive
PCYT2 (phosphate cytidylyltransferase 2, ethanolamine) | 1 | 0 | 0.4 | -7.6 | inactive
TGFB3 (transforming growth factor beta 3) | 1 | 0 | 7.8 | 4.5 | inactive
TPK1 (thiamin pyrophosphokinase 1) | 1 | 0 | -3.6 | 0.2 | inactive
ALDH8A1 (aldehyde dehydrogenase 8 family member A1) | 1 | -1 | -1.2 | -9 | inactive
IL37 (interleukin 37) | 1 | 0 | 11.6 | 9.7 | inactive
MBNL1 (muscleblind like splicing regulator 1) | 1 | -1 | -4.7 | 9.7 | inactive
NIPBL (NIPBL cohesin loading factor) | 1 | 0 | -3.1 | 10.3 | inactive
PRR7 (proline rich 7, synaptic) | 1 | 0 | 6 | 1.9 | inactive
ZFPL1 (zinc finger protein like 1) | 1 | -1 | -8.1 | -6.2 | inactive
NPR3 (natriuretic peptide receptor 3) | 1 | 0 | 1 | -5.4 | inactive
NPR3 (natriuretic peptide receptor 3) | 2 | 1 | 12.9 | 7.5 | inactive
S100A12 (S100 calcium binding protein A12) | 1 | 0 | -0.2 | 3.6 | inactive
LINC03124 (long independently transcribed non-coding RNA 3124) | 1 | 0 | 10.6 | 7.4 | inactive
EIF3D (eukaryotic translation initiation factor 3 subunit D) | 1 | 0 | -3.5 | -6 | inactive
CIMIP4 (ciliary microtubule inner protein 4) | 1 | 0 | 7.2 | 17.8 | inactive
IL19 (interleukin 19) | 1 | 0 | -0.6 | 2.2 | inactive
FAM131A (family with sequence similarity 131 member A) | 1 | 0 | -0.7 | 2.1 | inactive
KLF4 (KLF transcription factor 4) | 1 | 0 | -1.5 | 8.6 | inactive
LOC388454 | 1 | 0 | -6.3 | -4.9 | inactive
DSG1 (desmoglein 1) | 1 | 0 | 5.6 | 2.6 | inactive
TCP11L1 (t-complex 11 like 1) | 1 | -1 | -9.1 | -5.1 | inactive
MAGIX (MAGI family member, X-linked) | 1 | 0 | -5.9 | -8.4 | inactive
KIF20B (kinesin family member 20B) | 1 | 0 | -0.9 | -3.5 | inactive
EDAR (ectodysplasin A receptor) | 1 | -1 | -10.1 | -4.4 | inactive
RRS1 (regulator of ribosome synthesis 1) | 1 | 1 | 13.4 | 8.2 | inactive
SPEM1 (spermatid maturation 1) | 1 | -1 | -2.6 | 12.6 | inactive
LOC441297 | 1 | 1 | 8.4 | 15.3 | inactive
AATF (apoptosis antagonizing transcription factor) | 1 | 0 | -23.1 | -41.9 | inactive
PBRM1 (polybromo 1) | 1 | 0 | 11.4 | 19.7 | inactive
APP (amyloid beta precursor protein) | 1 | -1 | -8.2 | -18.6 | inactive
LOC440873 | 1 | 0 | 8.2 | 11.4 | inactive
SLC29A4P1 | 1 | 0 | 9.9 | 6.4 | inactive
LOC283029 | 1 | 0 | 5.5 | 0.8 | inactive
SS18L2 (SS18 like 2) | 1 | 0 | -3.5 | -11.2 | inactive
LOC130500 | 1 | 1 | 17 | 25 | inactive
LOC440909 | 1 | 0 | 10.5 | 4.4 | inactive
HOOK1 (hook microtubule tethering protein 1) | 1 | 0 | 7.6 | 8.4 | inactive
LOC137886 | 1 | 1 | 5.4 | 16.6 | inactive
CCDC63 (coiled-coil domain containing 63) | 1 | 0 | -2.7 | 3.9 | inactive
KAT14 (lysine acetyltransferase 14) | 1 | 1 | 4.1 | 12.7 | inactive
IGSF21 (immunoglobin superfamily member 21) | 1 | 0 | 1.7 | -2.8 | inactive
RPS6KB1 (ribosomal protein S6 kinase B1) | 1 | 1 | 17.7 | 13.7 | inactive
ALDH1A2 (aldehyde dehydrogenase 1 family member A2) | 1 | 0 | 2.9 | -0.8 | inactive
ZNF250 (zinc finger protein 250) | 1 | 0 | 5.6 | 13 | inactive
GRTP1 (growth hormone regulated TBC protein 1) | 1 | 0 | 0.5 | -2 | inactive
XRCC1 (X-ray repair cross complementing 1) | 1 | 0 | -15.1 | -20.2 | inactive
SCOC (short coiled-coil protein) | 1 | 0 | -3.5 | 3.9 | inactive
CARF (calcium responsive transcription factor) | 1 | 0 | 7.2 | 11.6 | inactive
HAL (histidine ammonia-lyase) | 1 | 0 | -3 | 9.2 | inactive
HS6ST1 (heparan sulfate 6-O-sulfotransferase 1) | 1 | 1 | 19.8 | 33.2 | inactive
HPX (hemopexin) | 1 | -1 | -18.7 | -23.3 | inactive
LIMS3 (LIM zinc finger domain containing 3) | 1 | -1 | -8.7 | -4 | inactive
LOC440737 | 1 | 0 | 23.4 | 24.4 | inactive
C6orf118 (chromosome 6 open reading frame 118) | 1 | 0 | -2.7 | 7.2 | inactive
LMO3 (LIM domain only 3) | 1 | 0 | 14 | 23.3 | inactive
PASK (PAS domain containing serine/threonine kinase) | 1 | 0 | -0.5 | 9.8 | inactive
NXPE1 (neurexophilin and PC-esterase domain family member 1) | 1 | 0 | 6.7 | 4.5 | inactive

Already shown: an excerpt of the list.
target | reagent no. | two-siRNA summed score (-2 to +2) | mean protection from cisplatin (shift in death) (%) | protection from cisplatin (shift in death), siRNA C (%) | Outcome
PRKCZ (protein kinase C zeta) | 1 | 0 | 5.4 | 3.2 | inactive
PTPRF (protein tyrosine phosphatase receptor type F) | 1 | 0 | -1 | 2.8 | inactive
TMEFF1 | 1 | 0 | -8.1 | -5.2 | inactive
LOC116064 | 1 | 1 | 13 | 25.4 | inactive
BAHD1 (bromo adjacent homology domain containing 1) | 1 | 0 | 5 | 7 | inactive
OR4F6 (olfactory receptor family 4 subfamily F member 6) | 1 | 0 | 16.5 | 23.9 | inactive
DNALI1 (dynein axonemal light intermediate chain 1) | 1 | 1 | 14.1 | 10.3 | inactive
KLC2 (kinesin light chain 2) | 1 | 0 | -5.2 | 13.8 | inactive
SMG1P2 (SMG1 pseudogene 2) | 1 | 0 | 13.5 | 15.6 | inactive
LSR (lipolysis stimulated lipoprotein receptor) | 1 | -1 | -28.3 | -8.4 | inactive
